Earlier results in US8084219B2, “Methods for detecting and analyzing N-glycolylneuraminic acid (Neu5Gc) in biological materials” (The Regents of the University of California, priority 2003, dated 2011).
Read-outs that look alike come from different tables or passages of the source.

Details: HPLC peaks, cited from earlier work

O=C(CO)N[C@H]1[C@H]([C@H](O)[C@H](O)CO)OC(O)(C(=O)O)C[C@@H]1O (stereo partly drawn) [Neu5Gc, N-glycolylneuraminic acid]
Neu5Gc as share of total Sias (normal adult human heart): ~2% | Neu5Gc as share of total Sias (normal adult human liver, skin and kidney): < 1% | Neu5Gc as share of total Sias (normal adult human spleen and testes): ~1%
